# Screening data, single-dose tests

From ChEMBL document CHEMBL3988442, “University of Dundee, Small-Polar-MMV Screening Library” (2021).

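Whole-parasite assay of Trypanosoma brucei over 72 hours; the read-out is not stated. Compounds at 30 µM. Higher reads as stronger inhibition (inferred: compounds with an IC50 in retests scored well above the rest). Values scatter widely below zero; nearly all retest evidence comes from the higher of the two concentrations used. Of about 64,000 compounds tested this way, about 940 (1.5%) reached 50% or more in at least one test.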

Each number is a percent effect as filed. The record does not define 0% and 100%; most values in the screen are far below 50% and negative numbers occur (in some assays of this library far below -100). Compounds were drawn at random from those tested, without regard to their results.

structure	effect
[H][C@@]12C[C@@H](c3noc(C)n3)O[C@]1([H])CN(Cc1ccc3c(c1)OCO3)C2	-30.19%
CC(C)c1nnc2n1CCN(Cc1cc(Cl)c3c(c1)OCCO3)C2	-30.7%
O=C1CCC2(CCN(Cc3ccsc3)CC2)N1Cc1ccccc1	-4.135%
O=C(c1ncoc1C1CCCO1)N1CCCC2(CCCCC2)C1 (stereo not drawn)	-48.51%
CN(C)c1ccc(C(=O)N2Cc3cnc(C(C)(C)C)nc3C2)cc1	-40.98%
CCS(=O)(=O)N1C[C@@H](O)[C@H](N(C)Cc2ccc(F)cc2)C1	-1.653%
CNS(=O)(=O)c1ccc(CNC(=O)N(C)C(C)COC)cc1 (stereo not drawn)	-40.03%
CC(C)(C)S(=O)(=O)c1ccc(N2CCC(n3cncn3)CC2)cn1	-5.35%
CC(=O)N1CCC[C@H]1C(=O)NCCCN(C(C)C)S(C)(=O)=O	3.52%
CCCN(CC1CC1)C(=O)Nc1ccc(N2CCSCC2)cc1C	-8.42%
O=C(c1ccc(C2CCCN2)s1)N1CC=CC1 (stereo not drawn)	-3.7%
CCn1c(CN2CCN(CCO)CC2)nc2c(F)cccc21	7.762%
Nc1cc(-c2nccnc2N2CCCC2)c2cc[nH]c2n1	-4.959%
CCOC(=O)[C@@H]1[C@@H](O)C(=O)N(C)C12CCN(C(=O)c1ccco1)CC2	34.11%
CCN(CC)CCNC(=O)CCc1c(C)nn(-c2ccccc2Br)c1C	-29.86%
CCC(C)N(Cc1c[nH]c(C)n1)Cc1ccccc1Cl (stereo not drawn)	18.78%
O=C(NCc1cccnc1)C1=NOC2(CCN(C(=O)N3CCCC3)C2)C1.O=C(O)C(F)(F)F (stereo not drawn)	-0.9704%
CCNC(=O)NC(=O)CNC(C)(C)c1ccc2c(c1)OCCO2	-1.709%
O=C(O)C(F)(F)F.O=S1(=O)c2ccccc2C2(CCN(Cc3ccccc3)C2)N1CC1CC1 (stereo not drawn)	23.33%
CCOC(=O)c1cc2c(=O)[nH]c(=O)n(CCc3ccccc3)c2nc1C	-10.96%
OC(CNCCc1nnc2ccccn12)c1ccc(F)c(F)c1 (stereo not drawn)	-58.29%
O=S(=O)(Cc1c(F)cccc1Cl)Cc1nnnn1C1CC1	-31.82%
CNC(=O)CN1CCOCC2(CCCN(CCc3ccccc3)C2)C1.O=C(O)C(F)(F)F.O=C(O)C(F)(F)F (stereo not drawn)	-38.61%
CN1C[C@@H](C(=O)N2CCOCC2)[C@@]2(CCc3ccccc3C(=O)N2)C1	-6.57%
CCC(CC)NCC(C)Oc1cccnc1 (stereo not drawn)	-36.26%
CN1CCCN(c2nccc(-c3cc(C(=O)O)ccn3)n2)CC1	-37.76%
CCCn1c(NC(=O)CNC(=O)OCC)nc2ccccc21	-18.3%
Cc1[nH]ccc1C(=O)NCc1ncoc1C	-6.207%
CCNC(=O)CNC(=O)Nc1c(F)cc(F)cc1-c1ccccc1	-9.795%
COc1ccccc1CC(=O)NCc1c(C)nc2cc(=O)[nH]n2c1C	-9.295%
CC(=O)N(C)Cc1cccc(NC(=O)N(C)Cc2nccs2)c1	-16.24%
CNC(=O)[C@@H]1C[C@H](N)CN1Cc1cc2cc(C)cc(C)c2[nH]c1=O	-23.97%
O=C(NCc1ccco1)N1CCCCC1c1nc(-c2ccncc2)no1 (stereo not drawn)	4.993%
CN(Cc1cnn(C)c1)C1CCCN(Cc2noc(C3CC3)n2)C1 (stereo not drawn)	-61.57%
Cn1cccc1-c1cc(C(=O)NCCc2nnc(N)s2)[nH]n1	-48.1%
CCN(Cc1nc(C(C)C)no1)Cc1cccs1	11.56%
CC(=O)N1CCC(c2nccnc2C)CC1	2.701%
CNS(=O)(=O)c1ccc(CNC(=O)C2CN(C)CCO2)cc1 (stereo not drawn)	3.665%
CCN(C)Cc1cccc(CNC(=O)CSCc2ccccn2)c1	-4.627%
COCc1c(Cl)cccc1NC(=O)NCc1cccc(N(C)C)n1	55.78%
CCC[C@@H]1CN(Cc2nnc(-c3cccc(F)c3)o2)C[C@H]1NC(C)=O	-8.507%
CN1CCN(C(=O)c2cc(-c3ccco3)cs2)CC1	-28.85%
Cc1noc(CCCC(=O)NCC(c2ccco2)N2CCCC2)n1 (stereo not drawn)	-26.08%
NC(=O)C1CCN(C(=O)c2ccc(Sc3ccccn3)cc2)CC1	3.796%
CCOCCN1CCCC(c2cc(C(N)=O)[nH]n2)C1 (stereo not drawn)	-12.63%
OCC1CCCN1c1cc(N2CCC(OC3CCCC3)CC2)ncn1 (stereo not drawn)	-6.942%
O=C(c1cnn(-c2ccccc2Cl)c1)N1CCN(CCO)CC1	-6.555%

For reference, 3 entries once more:

structure,effect
CC(C)c1nnc2n1CCN(Cc1cc(Cl)c3c(c1)OCCO3)C2,-30.7%
COc1ccccc1CC(=O)NCc1c(C)nc2cc(=O)[nH]n2c1C,-9.295%
O=C(O)C(F)(F)F.O=S1(=O)c2ccccc2C2(CCN(Cc3ccccc3)C2)N1CC1CC1 (stereo not drawn),23.33%